No constants are given. Whether binding was seen depends on the method and setting. In cells and extracts the contact can be indirect. Here binding means that the protein was enriched with, or labelled near, the bait; the list need not be complete. Sequences can lack the tags named with a protein.

Chains of the proteins cited; added tags and fusions are not shown.
UniProt O17695: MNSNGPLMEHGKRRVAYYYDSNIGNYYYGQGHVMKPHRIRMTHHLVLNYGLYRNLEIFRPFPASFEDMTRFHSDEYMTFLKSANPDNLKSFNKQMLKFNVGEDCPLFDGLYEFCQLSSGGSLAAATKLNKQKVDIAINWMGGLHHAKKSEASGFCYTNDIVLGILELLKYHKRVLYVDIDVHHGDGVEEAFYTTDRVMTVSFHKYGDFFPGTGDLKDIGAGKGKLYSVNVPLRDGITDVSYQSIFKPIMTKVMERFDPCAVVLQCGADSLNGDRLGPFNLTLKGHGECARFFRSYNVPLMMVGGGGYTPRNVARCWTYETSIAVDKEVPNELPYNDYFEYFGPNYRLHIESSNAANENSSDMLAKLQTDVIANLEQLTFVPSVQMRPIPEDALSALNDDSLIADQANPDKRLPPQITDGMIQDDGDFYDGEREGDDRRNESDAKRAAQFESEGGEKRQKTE
UniProt Q9U263: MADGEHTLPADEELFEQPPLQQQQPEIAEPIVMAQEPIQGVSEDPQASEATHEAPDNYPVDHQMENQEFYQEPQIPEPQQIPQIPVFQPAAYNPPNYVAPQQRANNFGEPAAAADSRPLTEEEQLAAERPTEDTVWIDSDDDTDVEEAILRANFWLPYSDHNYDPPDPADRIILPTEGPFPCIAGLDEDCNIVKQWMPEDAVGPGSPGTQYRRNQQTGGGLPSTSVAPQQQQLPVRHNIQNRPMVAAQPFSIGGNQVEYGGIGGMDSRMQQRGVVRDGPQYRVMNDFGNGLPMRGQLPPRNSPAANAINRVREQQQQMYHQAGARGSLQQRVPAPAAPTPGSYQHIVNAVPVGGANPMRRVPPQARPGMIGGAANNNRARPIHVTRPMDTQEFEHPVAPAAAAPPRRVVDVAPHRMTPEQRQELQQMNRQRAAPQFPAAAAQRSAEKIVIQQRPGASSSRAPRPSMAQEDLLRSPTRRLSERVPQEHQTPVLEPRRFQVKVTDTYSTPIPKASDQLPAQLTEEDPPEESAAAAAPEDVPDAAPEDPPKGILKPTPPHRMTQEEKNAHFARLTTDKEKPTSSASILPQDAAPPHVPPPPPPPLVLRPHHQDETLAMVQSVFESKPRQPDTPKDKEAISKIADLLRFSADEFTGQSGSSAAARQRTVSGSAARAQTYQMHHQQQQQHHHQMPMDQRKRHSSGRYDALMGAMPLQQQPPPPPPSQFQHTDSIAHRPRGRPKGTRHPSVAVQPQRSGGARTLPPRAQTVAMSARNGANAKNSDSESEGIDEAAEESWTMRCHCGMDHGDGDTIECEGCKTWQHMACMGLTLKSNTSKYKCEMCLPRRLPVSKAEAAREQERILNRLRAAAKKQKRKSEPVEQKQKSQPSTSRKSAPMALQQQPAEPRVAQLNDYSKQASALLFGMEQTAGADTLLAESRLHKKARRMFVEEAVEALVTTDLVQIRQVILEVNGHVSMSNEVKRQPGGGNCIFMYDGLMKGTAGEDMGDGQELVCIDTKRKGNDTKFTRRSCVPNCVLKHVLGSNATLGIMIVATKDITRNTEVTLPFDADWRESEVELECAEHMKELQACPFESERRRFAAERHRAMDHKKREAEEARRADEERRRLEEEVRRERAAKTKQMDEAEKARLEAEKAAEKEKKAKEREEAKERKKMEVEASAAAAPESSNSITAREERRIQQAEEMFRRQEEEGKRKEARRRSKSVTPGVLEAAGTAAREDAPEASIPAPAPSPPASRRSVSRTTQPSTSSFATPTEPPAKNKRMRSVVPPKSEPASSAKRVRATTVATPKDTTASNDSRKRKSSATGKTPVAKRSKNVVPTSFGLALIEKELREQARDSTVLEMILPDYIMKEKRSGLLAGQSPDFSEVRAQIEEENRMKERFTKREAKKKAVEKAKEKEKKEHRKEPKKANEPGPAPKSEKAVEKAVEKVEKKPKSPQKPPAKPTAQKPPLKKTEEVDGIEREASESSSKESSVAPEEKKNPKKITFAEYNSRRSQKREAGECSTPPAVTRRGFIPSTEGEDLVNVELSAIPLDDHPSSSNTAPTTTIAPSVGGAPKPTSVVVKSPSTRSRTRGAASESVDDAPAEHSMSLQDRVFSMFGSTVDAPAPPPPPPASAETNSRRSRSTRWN

The assay deals with T1, HCF-1::GFP (C. elegans) (UniProt G5EC23).
T1 sequence: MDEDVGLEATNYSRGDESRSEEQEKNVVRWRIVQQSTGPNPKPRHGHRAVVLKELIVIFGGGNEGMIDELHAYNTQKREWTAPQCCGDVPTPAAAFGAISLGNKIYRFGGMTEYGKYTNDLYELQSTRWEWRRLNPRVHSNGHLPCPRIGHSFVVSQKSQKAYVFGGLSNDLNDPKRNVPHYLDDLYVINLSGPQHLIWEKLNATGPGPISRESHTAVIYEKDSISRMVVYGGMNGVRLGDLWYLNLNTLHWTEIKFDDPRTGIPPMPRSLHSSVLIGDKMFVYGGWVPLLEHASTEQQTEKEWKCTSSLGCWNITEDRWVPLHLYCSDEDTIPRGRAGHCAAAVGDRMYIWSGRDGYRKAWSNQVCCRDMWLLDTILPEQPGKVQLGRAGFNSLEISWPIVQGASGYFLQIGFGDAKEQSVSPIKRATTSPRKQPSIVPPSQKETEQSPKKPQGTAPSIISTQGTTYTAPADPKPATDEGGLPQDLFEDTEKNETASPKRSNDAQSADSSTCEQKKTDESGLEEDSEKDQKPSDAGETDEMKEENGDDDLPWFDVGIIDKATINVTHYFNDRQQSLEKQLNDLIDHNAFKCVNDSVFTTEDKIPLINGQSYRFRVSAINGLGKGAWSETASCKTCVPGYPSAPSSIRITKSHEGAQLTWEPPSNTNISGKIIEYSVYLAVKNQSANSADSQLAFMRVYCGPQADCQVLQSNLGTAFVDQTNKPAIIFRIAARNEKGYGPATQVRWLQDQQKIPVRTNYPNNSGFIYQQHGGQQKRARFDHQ
Description: affinity purification with mass spectrometry; two independent single-replicate experiments: HCF-1::GFP immunoprecipitated from worm lysate with anti-GFP antibody (3E6; strain IU171, liquid culture) or with GBP beads (strain IU382.1; 20 mM Tris-HCl pH 8.0, 150 mM NaCl, 0.1% NP-40, 2 mM EDTA; 5 h at 4 °C); untagged N2 worms as negative control.

Consider “HDA-1 (from UniProt O17695 1-461) (enzyme)”, for which the binding result is reported as “binds weakly”.

Turning to SET-26 (from UniProt Q9U263 1-1645), the binding entry was “binds”.

For the origin of these results see article PMC10940595.
